Measurements from PMC7083938.

By UniProt entry, the sequences of proteins in these tests, tags left out. Where a name states a change or a piece, a line headed by the entry shows the natural chain unless it says otherwise. Residues count along the entry.
UniProt Q96MS0: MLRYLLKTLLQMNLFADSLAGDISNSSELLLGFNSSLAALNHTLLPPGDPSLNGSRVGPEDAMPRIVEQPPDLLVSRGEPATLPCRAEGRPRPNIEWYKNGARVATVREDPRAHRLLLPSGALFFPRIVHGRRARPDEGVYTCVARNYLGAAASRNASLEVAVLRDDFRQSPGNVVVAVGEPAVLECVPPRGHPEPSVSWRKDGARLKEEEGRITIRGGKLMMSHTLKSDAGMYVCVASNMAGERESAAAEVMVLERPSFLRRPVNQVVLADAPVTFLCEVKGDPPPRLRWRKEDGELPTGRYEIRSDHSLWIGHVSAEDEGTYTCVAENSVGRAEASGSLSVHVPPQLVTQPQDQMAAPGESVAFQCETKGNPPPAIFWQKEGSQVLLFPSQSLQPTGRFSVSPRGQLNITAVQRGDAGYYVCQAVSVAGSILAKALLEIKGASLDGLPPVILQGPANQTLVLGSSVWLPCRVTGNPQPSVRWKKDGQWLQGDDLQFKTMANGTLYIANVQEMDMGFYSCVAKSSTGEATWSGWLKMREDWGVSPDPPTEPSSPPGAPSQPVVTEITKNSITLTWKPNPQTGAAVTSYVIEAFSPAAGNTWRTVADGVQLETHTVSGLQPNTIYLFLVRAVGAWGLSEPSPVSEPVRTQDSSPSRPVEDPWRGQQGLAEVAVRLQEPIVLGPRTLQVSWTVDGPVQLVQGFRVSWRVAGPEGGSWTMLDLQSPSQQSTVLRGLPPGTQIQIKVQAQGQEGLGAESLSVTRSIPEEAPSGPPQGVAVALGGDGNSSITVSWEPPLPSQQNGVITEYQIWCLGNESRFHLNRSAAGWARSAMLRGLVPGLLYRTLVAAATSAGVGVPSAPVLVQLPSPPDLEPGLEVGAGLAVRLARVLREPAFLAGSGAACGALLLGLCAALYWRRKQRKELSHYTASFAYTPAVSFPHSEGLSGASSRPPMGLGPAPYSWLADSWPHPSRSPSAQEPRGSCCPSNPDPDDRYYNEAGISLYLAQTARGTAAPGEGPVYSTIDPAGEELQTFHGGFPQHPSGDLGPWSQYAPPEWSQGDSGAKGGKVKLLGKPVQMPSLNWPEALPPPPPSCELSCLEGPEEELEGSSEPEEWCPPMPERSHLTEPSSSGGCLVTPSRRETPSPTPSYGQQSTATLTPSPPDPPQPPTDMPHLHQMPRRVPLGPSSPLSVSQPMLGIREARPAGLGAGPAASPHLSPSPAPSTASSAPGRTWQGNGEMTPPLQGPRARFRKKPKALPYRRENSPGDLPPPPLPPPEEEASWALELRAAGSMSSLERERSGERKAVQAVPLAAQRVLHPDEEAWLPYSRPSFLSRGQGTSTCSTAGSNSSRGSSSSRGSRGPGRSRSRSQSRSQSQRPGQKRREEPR
UniProt Q99435, residues 397-638: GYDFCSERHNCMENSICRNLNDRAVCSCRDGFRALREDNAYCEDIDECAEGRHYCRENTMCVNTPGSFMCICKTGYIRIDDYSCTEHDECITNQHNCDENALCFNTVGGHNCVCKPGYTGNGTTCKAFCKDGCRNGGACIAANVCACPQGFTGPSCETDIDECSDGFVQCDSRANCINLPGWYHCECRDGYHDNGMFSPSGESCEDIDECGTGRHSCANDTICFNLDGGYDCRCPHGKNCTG
UniProt Q61220: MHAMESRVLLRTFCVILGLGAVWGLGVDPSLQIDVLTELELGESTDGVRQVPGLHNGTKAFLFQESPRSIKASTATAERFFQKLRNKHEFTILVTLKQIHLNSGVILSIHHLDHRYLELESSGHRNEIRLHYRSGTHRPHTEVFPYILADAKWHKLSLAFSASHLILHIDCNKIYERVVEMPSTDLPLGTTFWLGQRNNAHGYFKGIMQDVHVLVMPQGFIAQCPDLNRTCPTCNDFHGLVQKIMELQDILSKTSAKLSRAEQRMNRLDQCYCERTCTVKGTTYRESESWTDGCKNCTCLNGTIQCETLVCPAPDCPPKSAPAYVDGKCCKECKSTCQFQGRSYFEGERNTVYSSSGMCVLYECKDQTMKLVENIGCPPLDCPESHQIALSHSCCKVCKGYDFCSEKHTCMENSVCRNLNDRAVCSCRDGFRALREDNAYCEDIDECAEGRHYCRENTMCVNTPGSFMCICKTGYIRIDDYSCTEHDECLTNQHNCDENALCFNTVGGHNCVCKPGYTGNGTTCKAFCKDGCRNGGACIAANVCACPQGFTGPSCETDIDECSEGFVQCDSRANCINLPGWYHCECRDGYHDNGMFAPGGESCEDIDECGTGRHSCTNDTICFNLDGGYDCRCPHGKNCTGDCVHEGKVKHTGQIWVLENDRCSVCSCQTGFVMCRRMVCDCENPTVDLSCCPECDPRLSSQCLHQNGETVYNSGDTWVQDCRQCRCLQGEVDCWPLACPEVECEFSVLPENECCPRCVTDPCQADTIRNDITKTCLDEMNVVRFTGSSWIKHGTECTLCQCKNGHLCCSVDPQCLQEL

What was measured:
[1] = biological target: human Robo3 FN domains 1-3 (human) (UniProt Q96MS0); test: SEC; purified proteins and mixed complex samples (1:1 molar for hNELL2 EGF1–6 + hRobo3 FN1–3 on Superdex 200 Increase 10/300), HBS (10 mM HEPES pH 7.2, 150 mM NaCl); both purified
[2] = biological target: T1, mouse Robo3 ectodomain (mouse) (UniProt Q9Z2I4); test: SAXS; SEC-coupled SAXS, Superose 6 Increase 10/300 in HBS, APS beamline 18 (Bio-CAT); samples injected at 10–30 µM (hRobo3 ectodomain, hNELL2) or ~1 mg protein; molecular weight by the Vc method; both purified
T1 sequence (chain, biotin (NHS-Biotin) where captured on the SA chip for SPR): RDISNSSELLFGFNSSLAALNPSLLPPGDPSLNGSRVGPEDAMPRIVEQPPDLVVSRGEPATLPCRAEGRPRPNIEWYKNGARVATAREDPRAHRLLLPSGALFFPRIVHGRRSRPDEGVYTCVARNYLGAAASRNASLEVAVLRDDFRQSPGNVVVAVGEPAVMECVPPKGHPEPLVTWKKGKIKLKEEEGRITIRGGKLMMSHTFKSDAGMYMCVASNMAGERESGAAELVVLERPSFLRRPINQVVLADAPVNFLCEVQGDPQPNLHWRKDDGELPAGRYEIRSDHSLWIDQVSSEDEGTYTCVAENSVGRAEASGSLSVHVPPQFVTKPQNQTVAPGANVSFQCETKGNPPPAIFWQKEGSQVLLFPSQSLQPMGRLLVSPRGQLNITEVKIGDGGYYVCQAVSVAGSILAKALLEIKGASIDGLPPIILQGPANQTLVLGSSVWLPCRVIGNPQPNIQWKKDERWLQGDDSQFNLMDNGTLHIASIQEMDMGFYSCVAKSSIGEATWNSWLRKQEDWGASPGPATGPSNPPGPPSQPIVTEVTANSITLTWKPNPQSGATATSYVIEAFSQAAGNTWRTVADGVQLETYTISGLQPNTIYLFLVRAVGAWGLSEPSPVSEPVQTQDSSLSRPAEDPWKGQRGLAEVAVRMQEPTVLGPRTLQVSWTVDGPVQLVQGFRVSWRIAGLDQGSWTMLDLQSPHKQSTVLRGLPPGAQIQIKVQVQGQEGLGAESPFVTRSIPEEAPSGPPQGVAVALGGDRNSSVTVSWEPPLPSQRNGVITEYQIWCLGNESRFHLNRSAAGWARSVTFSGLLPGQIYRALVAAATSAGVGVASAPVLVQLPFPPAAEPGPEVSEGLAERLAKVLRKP

| binding [1] | binding [2] | Substance |
| --- | --- | --- |
| binds |  | human NELL2 EGF domains 1-6 (from UniProt Q99435 397-638) (domain or fragment) |
|  | binds | mouse NELL2 EGF1–6, wild type (from UniProt Q61220) (domain or fragment) |

No constants are given. Whether binding was seen depends on the method and setting. Binding can be weak; no strength is given.
